The values below come from US20150232856A1, “TELOMERASE INHIBITORS FOR USE IN THERAPY” (AGENCY FOR SCIENCE, TECHNOLOGY AND RESEARCH, priority 2012, published 2015).

By UniProt entry, the sequences of proteins in these tests, tags left out. Where a name states a change or a piece, a line headed by the entry shows the natural chain unless it says otherwise.
UniProt O14746: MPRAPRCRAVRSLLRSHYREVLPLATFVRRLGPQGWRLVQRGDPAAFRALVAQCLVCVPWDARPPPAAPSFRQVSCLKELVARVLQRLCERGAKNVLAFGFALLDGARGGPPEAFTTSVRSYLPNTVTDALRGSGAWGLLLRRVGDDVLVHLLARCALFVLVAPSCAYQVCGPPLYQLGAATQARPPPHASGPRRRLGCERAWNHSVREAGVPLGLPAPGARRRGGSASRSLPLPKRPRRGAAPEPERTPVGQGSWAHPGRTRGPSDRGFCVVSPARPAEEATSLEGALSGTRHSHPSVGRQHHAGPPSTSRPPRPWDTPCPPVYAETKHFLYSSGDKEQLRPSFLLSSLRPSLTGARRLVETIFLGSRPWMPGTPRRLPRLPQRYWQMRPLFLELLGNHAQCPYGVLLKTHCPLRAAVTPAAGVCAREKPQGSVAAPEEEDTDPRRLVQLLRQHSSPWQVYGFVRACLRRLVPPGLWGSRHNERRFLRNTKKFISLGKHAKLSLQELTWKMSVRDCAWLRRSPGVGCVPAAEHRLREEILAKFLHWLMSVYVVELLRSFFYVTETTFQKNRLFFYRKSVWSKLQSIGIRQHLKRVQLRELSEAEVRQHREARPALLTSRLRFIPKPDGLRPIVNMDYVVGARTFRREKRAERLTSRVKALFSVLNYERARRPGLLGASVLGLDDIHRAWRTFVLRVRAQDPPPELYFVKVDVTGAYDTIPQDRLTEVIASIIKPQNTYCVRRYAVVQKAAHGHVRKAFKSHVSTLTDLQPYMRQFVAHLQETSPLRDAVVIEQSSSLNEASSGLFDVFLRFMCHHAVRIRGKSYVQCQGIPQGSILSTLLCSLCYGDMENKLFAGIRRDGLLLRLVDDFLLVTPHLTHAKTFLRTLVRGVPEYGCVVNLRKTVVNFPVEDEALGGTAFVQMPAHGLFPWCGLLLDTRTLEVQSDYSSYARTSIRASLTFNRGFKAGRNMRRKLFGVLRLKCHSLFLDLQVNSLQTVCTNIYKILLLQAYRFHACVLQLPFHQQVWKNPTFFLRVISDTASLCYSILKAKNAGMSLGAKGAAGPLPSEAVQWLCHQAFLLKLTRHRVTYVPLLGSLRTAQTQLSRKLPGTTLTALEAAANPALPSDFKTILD

Results from cells or extracts need not show a direct contact. For some assays here: No signal at the amounts used counts as a negative. For some assays here: Construct, isoform or probe ends are uncertain for at least one entry.

Series [1] relates to NF-kB p50/p65 (nuclear extract). Description: EMSA. To be noted: protein in an extract, label: radiolabel. A general note: A gel shift assay detects complexes by their altered migration in electrophoresis.
Series [2] has as its target hTERT (telomerase) (Homo sapiens) (UniProt O14746). Put plainly: EMSA. Conditions: hTERT antibodies did not supershift; protein in an extract; label: radiolabel.

In the case of “TGACTCAGGTTTGCCCTGAGGGGATGGGCC (double strand) [IL8A]”, the binding result in series [1] (A2780 cells, TNFalpha 30 min) is “binds”.
The same measure, in the same setting: the entry for “GCATGGGAATTTCCAACTCTGGGAATTCCAATCCTTGCTGGGAA (double strand) [TNFalphaA]” is “binds”.
As to “ACTGGGAGGATTCCCAAGGGGTCAATTGGGAGA (double strand) [IL6A]”, the binding result in series [1] (TNFalpha-induced, reduced by hTERT ablation, p50 and p65 antibodies supershift) is “binds”.
Regarding “TCAACAGAGGGGACTTTCCGAGAGGCC (double strand) [NFkB consensus probe]”, the binding result in series [2] is “no binding”; in series [1] (TNFalpha-induced, unaffected by hTERT levels, p50 and p65 antibodies supershift) it was “binds”.
